Reference: US20220088155A1, “SUBCONJUNCTIVAL CHEMOTHERAPEUTIC DELIVERY BY FIBRIN SEALANT IN THE TREATMENT OF RETINOBLASTOMA” (BAXTER INTERNATIONALINC., priority 2019, published 2022)

Test system: fibrin clot formation in whole blood and fibrin sealant
Test: Fibrin polymerization (A405 nm) and thromboelastography of chemotherapies in whole blood/plasma and fibrin sealant
Settings: for Fibrin polymerization and viscoelastic clot properties: both whole blood and sealant formulations

Compound	Fibrin polymerization and viscoelastic clot properties	Fibrin formation (polymerization) time	Maximal clot amplitude or modulus (overall clot strength)
N.N.O=C([O-])C1(C(=O)[O-])CCC1.[Pt+2] [Carboplatin]	unaffected; also recorded: not appreciably affected	–	–
COc1cc([C@@H]2c3cc4c(cc3[C@@H](O[C@@H]3O[C@@H]5CO[C@@H](C)O[C@H]5[C@H](O)[C@H]3O)[C@H]3COC(=O)[C@H]23)OCO4)cc(OC)c1O [Etoposide]	unaffected; also recorded: not appreciably affected	–	–
CC[C@]1(O)C[C@H]2CN(CCc3c([nH]c4ccccc34)[C@@](C(=O)OC)(c3cc4c(cc3OC)N(C=O)[C@H]3[C@@](O)(C(=O)OC)[C@H](OC(C)=O)[C@]5(CC)C=CCN6CC[C@]43[C@@H]65)C2)C1 [Vincristine]	–	impeded; also recorded: increases	did not affect; also recorded: without affecting

“Also recorded” adds a separate entry of the source.
